Experimental data from PubChem BioAssay AID1671190 (National Center for Advancing Translational Sciences (NCATS), 2021).
Several values for one entry are separate records, joined by “and”; a condition that tells them apart may be missing. Equal values may be shown once. The campaign covered roughly 580,000 compounds. About 6,100 (1.1%) were called active. The inconclusive results got no clear call from the source; some entries with a clear call stand among them for comparison. The call rests on the fitted dose curve; in most records, active means well fitted inhibition curve with a large enough effect; inconclusive means small, poorly fitted or top-dose-only effect, or another doubt; inactive means no such curve, though single readings can be large or run the other way. Potencies of inconclusive entries are doubtful fits and often do not repeat.

The chains behind the UniProt entries cited, without tags or fusion partners. Where a name states a change or a piece, a line headed by the entry shows the natural chain unless it says otherwise.
UniProt P18054: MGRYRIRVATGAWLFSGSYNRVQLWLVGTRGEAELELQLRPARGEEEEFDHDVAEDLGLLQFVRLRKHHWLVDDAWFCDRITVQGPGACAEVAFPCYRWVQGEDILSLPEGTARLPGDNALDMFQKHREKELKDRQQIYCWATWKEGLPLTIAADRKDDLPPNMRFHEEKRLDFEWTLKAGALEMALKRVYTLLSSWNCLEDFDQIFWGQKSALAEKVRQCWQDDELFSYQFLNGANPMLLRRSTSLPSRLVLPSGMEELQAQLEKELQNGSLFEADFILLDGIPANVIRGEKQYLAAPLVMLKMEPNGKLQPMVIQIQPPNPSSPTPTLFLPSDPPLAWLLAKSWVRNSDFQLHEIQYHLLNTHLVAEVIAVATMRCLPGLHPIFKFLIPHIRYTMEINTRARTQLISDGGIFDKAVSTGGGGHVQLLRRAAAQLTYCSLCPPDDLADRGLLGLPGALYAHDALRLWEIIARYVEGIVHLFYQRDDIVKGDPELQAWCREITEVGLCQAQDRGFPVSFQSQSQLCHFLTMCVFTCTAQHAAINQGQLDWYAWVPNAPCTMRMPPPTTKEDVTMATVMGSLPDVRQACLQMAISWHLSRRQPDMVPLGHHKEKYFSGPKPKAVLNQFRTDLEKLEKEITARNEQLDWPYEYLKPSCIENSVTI

These compounds were tested against Polyunsaturated fatty acid lipoxygenase ALOX12 (Homo sapiens) (UniProt P18054) (assay: Primary qHTS assay for inhibitors of human arachidonate 12S-lipoxygenase (ALOX12): Round 2). Conditions: purified 12hLO, xylenol orange hydroperoxide absorbance; activity change, negative = inhibition: at 108 µM (top of the series).
Procedure, shortened: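 Hydroperoxide product was detected by ferrous iron/xylenol orange as the 573 to 405 nm absorbance ratio. Arachidonic acid at 40 uM (final) was turned over for 30 min at room temperature by 150 nM human 12hLO, pH 7.0 Hepes buffer, after 15 min compound preincubation.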
On the % scale 0 is the no-effect control and ±100 the full control effect; potency means the concentration at half of the fitted maximal effect.

| Structure (SMILES) | Potency | activity change, negative = inhibition |
| --- | --- | --- |
| CC(C)N(Cc1ccco1)/N=C/c1c(O)n(Cc2ccccc2)c(=O)[nH]c1=O | inconclusive: 126 µM [inhibitor, partial curve, poor fit] |  |
| CCCN1CCc2cccc3c2C1Cc1ccc(O)c(O)c1-3 (centres undefined) | inconclusive: 5.62 µM [inhibitor, full curve, poor fit] |  |
| CCN(CC)C(=O)Cn1cc(/C=C2\C(=O)NC(=O)N(c3ccccc3F)C2=O)c2ccccc21 | inconclusive: 44.7 µM [inhibitor, partial curve] |  |
| O=S1(=O)NCC2(CCN(Cc3ccsc3)C2)Oc2ncccc21 (centres undefined) |  | inactive: 10.1% [at 6.33 µM] |
| c1ccc(C2CC2)c(OCC2=NCCN2)c1 | inconclusive: 15.8 µM [inhibitor, partial curve, poor fit] |  |
| COc1ccc(-c2ccc3n(c2=O)C[C@H]2C[C@@H]3CN(S(C)(=O)=O)C2)cc1 | inconclusive: 79.4 µM [inhibitor, partial curve, poor fit] |  |
| CCOc1cc(CNCCc2c[nH]c3ccccc23)cc(Cl)c1OCC | inconclusive: 89.1 µM [inhibitor, partial curve, poor fit] |  |
| CCCCn1c(NS(=O)(=O)c2ccccc2)c(C(=O)OCC)c2nc3ccccc3nc21 | inactive |  |
| CCOC(=O)C(O)(c1ccc(N=c2ccccn2C)cc1)C(F)(F)F (centres undefined) | inconclusive: 112 µM [inhibitor, partial curve, poor fit] |  |
| CN(C)c1ccc([N+](=O)[O-])c2cnccc12 | inactive |  |
| CC[C@H]1CN2CC[C@H]1C[C@@H]2CNC(=O)c1ccc2c(c1)OCO2 | inactive |  |
| CN1CCCN(C(=O)COc2ccccc2)CC1 | inconclusive: 1.12 µM [inhibitor, full curve, poor fit] |  |
| O=C(Nc1ccon1)c1cccn(Cc2ccccc2)c1=O | inconclusive: 178 µM [inhibitor, partial curve, poor fit] |  |
| COc1ccc(S(=O)(=O)NC[C@H]2C[C@@H]3CCN2C[C@@H]3CN2CCc3ccccc32)cc1 | inconclusive: 12.6 µM [inhibitor, full curve] |  |
| Cc1c(OC(=O)N(C)C)ccc2c1O/C(=C\c1ccco1)C2=O | inconclusive: 28.2 µM [inhibitor, partial curve, poor fit] |  |
| CC(C)C(CN1CCC(C)(c2cccc(O)c2)[C@@H](C)C1)NC(=O)C1Cc2ccc(O)cc2CN1 (some centres undefined) | inconclusive: 44.7 µM [inhibitor, partial curve, poor fit] |  |
| O=C1CC(N2CC2)C(=O)N1c1ccccc1 (centres undefined) | inactive |  |
| CC(=O)N(C)CC#CCN1CCC(O)CC1 | inconclusive: 15.8 µM [inhibitor, full curve, poor fit] |  |
| COCC1CN(Cc2cccnc2)CC12CCNCC2 (centres undefined) | inconclusive: 14.1 µM [inhibitor, partial curve] |  |
| Cn1c(O)c(N=Nc2ccc(S(=O)(=O)N3CCOCC3)cc2)c(=O)n(C)c1=O | inconclusive: 44.7 µM [inhibitor, partial curve, poor fit] |  |

| Structure (SMILES) | Potency | activity change, negative = inhibition |
| --- | --- | --- |
| Cn1cccc1C1CCCN1CC(=O)Nc1ccc(C#N)c(Cl)c1 (centres undefined) | inconclusive: 44.7 µM [inhibitor, partial curve, poor fit] |  |
| COC1C(OC(=O)c2ccc(C)[nH]2)C(O)C(Oc2ccc3c(O)c(NC(=O)c4ccc(O)c(CC=C(C)C)c4)c(=O)oc3c2Cl)OC1(C)C (centres undefined) | active: 39.8 µM |  |
| CCn1cc(C=C2C(=O)N(C)C(=O)N(C)C2=O)c2ccccc21 | inactive |  |
| CCOP(=S)(OCC)Oc1cc(C)nc(C(C)C)n1 | inconclusive: 11.4 µM [inhibitor, partial curve, poor fit] and inconclusive: 44.7 µM [inhibitor, partial curve, poor fit] |  |
| O=c1c2ccccc2nc(/C=C/c2ccc(O)cc2)n1-c1cccc(O)c1 | inconclusive: 50.1 µM [inhibitor, single point] |  |
| CNC1CCc2cc(OC)c(OC)cc21 (centres undefined) | inconclusive: 8.2 µM [inhibitor, single point] |  |
| COC(=O)C1=C(c2cc3ccccc3s2)C[C@@H]2CC[C@H]1N2C(=O)NCc1ccco1 | inconclusive: 50.1 µM [inhibitor, partial curve, poor fit] |  |
| O=C(O)CCn1cc(C=C2C(=O)NC(=S)NC2=O)c(-c2cccc(Br)c2)n1 | inconclusive: 44.7 µM [inhibitor, partial curve] |  |
| O=C(CN1CCCCC1)NCC(=O)Nc1ccc(Br)cc1C(=O)c1ccccc1 | inconclusive: 50.1 µM [inhibitor, partial curve, poor fit] |  |
| CCOC(=O)c1c(-n2c(C)cc(/C=C3/C(=O)NC(=O)N(CC)C3=O)c2C)sc2c1CCCC2 | inconclusive: 39.8 µM [inhibitor, single point] |  |
| O=C(N/N=C/c1c(O)n(-c2ccccc2)c(=O)[nH]c1=O)c1ccncc1 | inactive |  |
| Cc1noc(C)c1C(=O)N1C2CCC1CN(Cc1cccnc1)C2 | inconclusive: 50.1 µM [inhibitor, partial curve, poor fit] |  |
| O=C(O)c1ccccc1-c1ccc(C=C2C(=O)N(c3ccccc3)C(=S)N(c3ccccc3)C2=O)o1 | active: 31.6 µM |  |
| O=C(NCCN1CCC(n2c(=O)[nH]c3ccccc32)CC1)c1ccc2ccccc2c1 | inconclusive: 44.7 µM [inhibitor, partial curve, poor fit] |  |
| COC(=O)[C@@H]1[C@@H](CO)[C@@H]2Cn3c(ccc(Br)c3=O)[C@@H]2N1C | inconclusive: 39.8 µM [inhibitor, partial curve] |  |
| Cc1ccc(-n2c(O)c(C=Nc3ccccc3N)c(=O)[nH]c2=O)cc1C | inactive |  |
| O=C1CN=C(c2ccccc2)c2oc3ccc(Br)cc3c2N1 | inconclusive: 2 µM [inhibitor, full curve, poor fit] |  |
| Cc1ccc(-c2nc(CN3C(=O)CN=C(c4ccccc4)c4cc(Cl)ccc43)c(C)o2)cc1 | inactive |  |
| COc1ccc(CCC(=O)N2CCC3(CC2)NCc2ccccc2-n2ccnc23)cc1 | inactive |  |
| O=C(Cn1cnc2sc3c(c2c1=O)CCCC3)NCCC(=O)N1CCC2(CC1)OCCO2 | inconclusive: 0.501 µM [inhibitor, partial curve, poor fit] |  |

| Structure (SMILES) | Potency | activity change, negative = inhibition |
| --- | --- | --- |
| COC(=O)C1=C(c2ccc(OC(F)(F)F)cc2)C[C@@H]2CC[C@H]1N2C(=O)NCCOc1ccc(OC)cc1 | inconclusive: 89.1 µM [inhibitor, single point] |  |
| Cc1ccc(/C=C2\C(=O)NC(=S)N(c3cccc(F)c3)C2=O)o1 | inconclusive: 22.4 µM [inhibitor, partial curve, poor fit] |  |
| C=CCC1C(=O)NC(=S)NC1=O | inconclusive: 12.6 µM [inhibitor, full curve] |  |
| O=c1[nH]c(=O)n(CCC2=CCCCC2)c(O)c1C=NCCN1CCNCC1 | inconclusive: 35.5 µM [inhibitor, partial curve, poor fit] |  |
| Cc1cccc(-n2c(O)c(C=Nc3ccc(Br)cn3)c(=O)[nH]c2=O)c1 | inconclusive: 50.1 µM [inhibitor, partial curve, poor fit] |  |
| CCC1(N2CCN(C(=O)Cc3c[nH]c4ccccc34)CC2)CCN(S(C)(=O)=O)C1 (centres undefined) | inconclusive: 4.47 µM [inhibitor, full curve] |  |
| CCN1C(=O)NC(=O)/C(=C\c2ccc(N3CCOCC3)cc2OC)C1=O | inconclusive: 0.631 µM [inhibitor, full curve, poor fit] |  |
| Cc1ccccc1-n1c(/C=C/c2ccco2)nc2ccccc2c1=O | inconclusive: 126 µM [inhibitor, single point] |  |
| COC(=O)C1=C(c2ccccc2OCc2ccccc2)C[C@@H]2CC[C@H]1N2C(=O)NCc1ccccc1 | inconclusive: 7.08 µM [inhibitor, full curve, poor fit] |  |
| COc1ccccc1Oc1c(C)oc2cc(OC(=O)N(C)C)ccc2c1=O | inconclusive: 100 µM [inhibitor, single point] |  |
| COc1ccc(CCNCc2sccc2C)cc1 | inconclusive: 89.1 µM [inhibitor, single point] |  |
| COCCCNC(=O)c1c(NC(=O)c2ccccc2Cl)n(Cc2ccccc2)c2nc3ccccc3nc12 | inactive |  |
| N[C@@H](Cn1cc(I)c(=O)[nH]c1=O)C(=O)O | inconclusive: 1.12 µM [inhibitor, full curve, poor fit] |  |
| COC(=O)C1=C(c2ccc(-c3ccccc3)c(F)c2)C[C@@H]2CC[C@H]1N2C(=O)N1CCCCC1 | inconclusive: 56.2 µM [inhibitor, partial curve, poor fit] |  |
| CCOC(=O)[C@]12Cc3ccccc3[C@H]1N(C(C)C)C(=O)c1cc(OC)ccc12 | inconclusive: 50.1 µM [inhibitor, partial curve, poor fit] |  |
| CN1C(=O)C(=Cc2ccccc2OCCOc2ccc([N+](=O)[O-])cc2)C(=O)N(C)C1=O | inconclusive: 35.5 µM [inhibitor, partial curve] |  |
| CN1CCN(CCOC2c3ccccc3CSc3ccc(Cl)cc32)CC1 (centres undefined) | inconclusive: 39.8 µM [inhibitor, partial curve, poor fit] |  |
| CCC(C)N1C(=O)NC(=O)C2(Cc3c(ccc4ccccc34)N(C)C2)C1=O (centres undefined) | inconclusive: 79.4 µM [inhibitor, partial curve, poor fit] |  |
| CCOC(=O)[C@]12Cc3cc(Cl)ccc3[C@H]1N(C(C)C)C(=O)c1ccccc12 | inconclusive: 100 µM [inhibitor, partial curve, poor fit] |  |
